These are yes or no findings as the source states them, for the method shown. Binding seen in cells or lysates may run through a third protein. These calls come from enrichment with a bait or labelling near it, and not all partners need be listed.
Target: T1, NADPH oxidase isoform 4 (Nox4) (human (endogenous in AFSC)) (UniProt Q9NPH5)
T1 sequence: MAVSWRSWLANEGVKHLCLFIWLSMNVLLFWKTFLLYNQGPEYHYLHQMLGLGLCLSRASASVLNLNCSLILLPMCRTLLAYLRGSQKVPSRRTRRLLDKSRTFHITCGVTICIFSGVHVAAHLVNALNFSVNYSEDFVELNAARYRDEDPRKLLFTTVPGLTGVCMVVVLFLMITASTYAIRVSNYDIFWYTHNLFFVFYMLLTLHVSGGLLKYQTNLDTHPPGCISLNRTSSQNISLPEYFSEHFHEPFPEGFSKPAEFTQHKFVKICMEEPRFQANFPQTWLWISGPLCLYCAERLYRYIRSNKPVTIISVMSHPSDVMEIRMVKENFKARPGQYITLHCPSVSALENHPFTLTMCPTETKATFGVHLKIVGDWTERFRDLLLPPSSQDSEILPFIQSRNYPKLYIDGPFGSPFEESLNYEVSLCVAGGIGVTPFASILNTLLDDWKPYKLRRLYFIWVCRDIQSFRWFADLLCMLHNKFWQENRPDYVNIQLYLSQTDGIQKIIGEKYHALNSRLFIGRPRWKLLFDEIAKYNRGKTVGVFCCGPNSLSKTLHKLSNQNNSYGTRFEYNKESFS
Assay: affinity purification with mass spectrometry; Nox4 immunoprecipitated from lysates of isolated AFSC nuclei; SDS-PAGE, Coomassie bands, in-gel trypsin digestion, LC/MS/MS, Mascot; called preliminary

Chains of the proteins cited; added tags and fusions are not shown. Residues count along the entry.
UniProt P02545, residues 1-646: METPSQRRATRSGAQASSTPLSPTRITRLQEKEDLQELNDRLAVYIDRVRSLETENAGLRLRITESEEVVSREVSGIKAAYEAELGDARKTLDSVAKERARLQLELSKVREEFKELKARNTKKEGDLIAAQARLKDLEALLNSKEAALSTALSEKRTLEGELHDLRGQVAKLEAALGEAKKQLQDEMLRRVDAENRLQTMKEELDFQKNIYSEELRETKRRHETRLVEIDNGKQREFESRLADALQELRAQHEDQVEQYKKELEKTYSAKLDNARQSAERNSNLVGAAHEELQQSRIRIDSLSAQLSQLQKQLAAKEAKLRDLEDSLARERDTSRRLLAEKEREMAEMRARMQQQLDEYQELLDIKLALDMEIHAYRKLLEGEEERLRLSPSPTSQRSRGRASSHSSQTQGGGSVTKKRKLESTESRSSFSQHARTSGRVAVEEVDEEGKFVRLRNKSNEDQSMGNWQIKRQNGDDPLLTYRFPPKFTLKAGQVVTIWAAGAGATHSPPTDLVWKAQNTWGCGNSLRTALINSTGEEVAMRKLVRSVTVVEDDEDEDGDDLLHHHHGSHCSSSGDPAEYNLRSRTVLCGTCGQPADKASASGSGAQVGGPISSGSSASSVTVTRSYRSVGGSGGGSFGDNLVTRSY

binding: binds
Substance: lamin A proteins (from UniProt P02545 1-646)
